Measurements as given in US7663000B2, “Quinoneimines of malonic acid diamides” (A-Viral ASA, priority 2003, dated 2010).
Some results were stated once for a whole list of compounds, not compound by compound.

Tests used:
[1] = tested on: Interleukin-6 (IL6) production of mononuclear cells (MNC); assay: Suppression of Interleukin-6 production in isolated human mononuclear cells; format: cell-based; conditions: human MNC from peripheral blood of healthy volunteers; FIG. 8
[2] = tested on: Granulocyte Colony-Stimulating Factor (GM-CSF) production of mononuclear cells (MNC); assay: Suppression of GM-CSF production in isolated human mononuclear cells; format: cell-based; conditions: human MNC from peripheral blood of healthy volunteers; FIG. 9

How did the “concentration sufficient to completely block production of IL6” value [1] turn out when “N-phenyl-2-hydroxy-2 butyl 1,3-propanal quinoneimine [PHBPQ]” was run?
The value was 0.5 to 2 µM.

What about the “concentration sufficient to completely block production of GM-CSF” value [2] of the same substance?
The value was 0.5 to 2 µM.
